Data as given in PubChem BioAssay AID1259285 (Sanger Institute, 2017)

Assay: 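Kinase knock-downs that reduce colorectal cancer cell viability or act with drugs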 (primary screen)
Cell system: human HCC56 colorectal cancer cells
Reagents: siRNA pool against human genes
Challenge: DMSO vehicle, or anchor drug BYL719 at 1 µM, cetuximab at 5 µg/ml, or trametinib at 10 nM
Measured: 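Viability as a ratio to non-targeting pool wells, averaged over replicates and turned into a robust z-score; synergy scores with BYL719, cetuximab or trametinib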
Direction: viability robust z-score, no drug: higher = more viable cells, weaker knock-down effect; viability vs non-targeting pool, no drug: higher = more viable cells
Hit rule: 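a knock-down counts as essential if its viability z-score without drug is under -3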
Meaning of the calls: active = essential without drug; inactive = no change without drug
In all, the deposit lists 794 reagents; shown is a random part of them. Over the whole deposit, 20 (2.5%) are marked active. 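Calls rest on the drug-free arm alone and ignore synergy scores; viability ratios seem to be capped at 1.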 Not all columns of the deposit are shown. Not given: the amount of reagent, the time to read-out.

gene knocked down | viability robust z-score, no drug | viability vs non-targeting pool, no drug | call
IRAK1 | 0.458 | 1 | inactive
MAPK3 | -2.23 | 0.769 | inactive
DAPK1 | -0.568 | 0.912 | inactive
MAP2K5 | 0.458 | 1 | inactive
PHKA1 | 0.458 | 1 | inactive
PRKCH | -1.89 | 0.798 | inactive
GUCY2EP | 0.458 | 1 | inactive
TCF7L2 | 0.458 | 1 | inactive
NTRK2 | 0.458 | 1 | inactive
NADK | 0.458 | 1 | inactive
CHD9 | 0.458 | 1 | inactive
PRKAG3 | -1.61 | 0.822 | inactive
RPS6KB2 | 0.458 | 1 | inactive
AK7 | 0.458 | 1 | inactive
WIPF1 | 0.458 | 1 | inactive
MARK4 | -1.09 | 0.867 | inactive
PSTK | 0.458 | 1 | inactive
EFNB3 | -1.24 | 0.854 | inactive
CKS2 | 0.458 | 1 | inactive
ITPK1 | -0.0921 | 0.953 | inactive
MKNK1 | 0.458 | 1 | inactive
GNAS | -2.5 | 0.746 | inactive
CTCF | 0.458 | 1 | inactive
ACVRL1 | 0.458 | 1 | inactive
FGFR2 | 0.458 | 1 | inactive
COQ8B | 0.458 | 1 | inactive
SRP72 | 0.458 | 1 | inactive
PRKCSH | -0.366 | 0.929 | inactive
PLK4 | 0.458 | 1 | inactive
BMAL1 | -1.17 | 0.86 | inactive
WT1 | 0.458 | 1 | inactive
AURKB | 0.458 | 1 | inactive
FN3KRP | -1.7 | 0.815 | inactive

A stretch of the results above:
gene knocked down | viability robust z-score, no drug | viability vs non-targeting pool, no drug | call
PRKCH | -1.89 | 0.798 | inactive
GUCY2EP | 0.458 | 1 | inactive
TCF7L2 | 0.458 | 1 | inactive
NTRK2 | 0.458 | 1 | inactive
NADK | 0.458 | 1 | inactive

Further entries follow.
gene knocked down | viability robust z-score, no drug | viability vs non-targeting pool, no drug | call
IKBKG | 0.458 | 1 | inactive
MAP3K14 | -1.23 | 0.855 | inactive
ACVR2A | 0.458 | 1 | inactive
NME2 | 0.458 | 1 | inactive
RELA | 0.458 | 1 | inactive
PIK3R2 | 0.458 | 1 | inactive
PIP4K2A | 0.458 | 1 | inactive
MTOR | 0.458 | 1 | inactive
CSNK1E | 0.458 | 1 | inactive
IP6K2 | 0.458 | 1 | inactive
EPHA6 | -2.18 | 0.773 | inactive
STRADB | 0.458 | 1 | inactive
DMPK | 0.458 | 1 | inactive
BMPR2 | -0.0255 | 0.958 | inactive
PRAG1 | 0.458 | 1 | inactive
IRAK3 | -0.299 | 0.935 | inactive
NEK1 | 0.458 | 1 | inactive
